Measured values published in paper PMC9599297, “Graphitic Carbon Nitride and IGZO Bio-FET for Rapid Diagnosis of Myocardial Infarction”.
Construct, isoform or probe ends are uncertain for at least one entry. A weaker result is weaker than the reference pair of the same experiment. Where a protein sequence is shown, tags need not be part of it.

Biological target: T1, myoglobin (UniProt P02144)
T1 sequence (looked up, limits assumed): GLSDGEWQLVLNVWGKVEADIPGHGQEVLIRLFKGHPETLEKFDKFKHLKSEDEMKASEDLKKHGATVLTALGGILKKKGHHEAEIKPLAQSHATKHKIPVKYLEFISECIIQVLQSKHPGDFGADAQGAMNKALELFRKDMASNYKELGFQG
Assay: FET aptasensor (IGZO/PCN-Au NPs), drain current change
Details: selectivity test, noticeably weaker than cTnI, interference <5%; ThiC6 (thiol-C6) at 5' end, immobilised on Au NPs; 10 mM PBS pH 7.4 (PBS tablets: 2.7 mM KCl, 137 mM NaCl), 10 min incubation, water wash; surface blocked with MCH and 0.10 mg/mL BSA; temperature not stated; commercial protein; single-stranded DNA

CGTGCAGTACGCCAACCTTTCTCATGCGCTGCCCCTTA [Tro4 anti-cTnI DNA aptamer]
binding result: binds more weakly
